In the assay the target is Kif14(709)-eGFP (human) (UniProt Q15058). As to the kind of experiment: single-molecule GFP fluorescence intensity.

Results are given in words; binding and its absence hold for the method and conditions named. Sequences can lack the tags named with a protein.

B1: Kif14(709)-eGFP (domain or fragment, UniProt Q15058 1-709)
chain: MSLHSTHNRNNSGDILDIPSSQNSSSLNALTHSSRLKLHLKSDMSECENDDPLLRSAGKVRDINRTYVISASRKTADMPLTPNPVGRLALQRRTTRNKESSLLVSELEDTTEKTAETRLTLQRRAKTDSAEKWKTAEIDSVKMTLNVGGETENNGVSKESRTNVRIVNNAKNSFVASSVPLDEDPQVIEMMADKKYKETFSAPSRANENVALKYSSNRPPIASLSQTEVVRSGHLTTKPTQSKLDIKVLGTGNLYHRSIGKEIAKTSNKFGSLEKRTPTKCTTEHKLTTKCSLPQLKSPAPSILKNRMSNLQVKQRPKSSFLANKQERSAENTILPEEETVVQNTSAGKDPLKVENSQVTVAVRVRPFTKREKIEKASQVVFMSGKEITVEHPDTKQVYNFIYDVSFWSFDECHPHYASQTTVYEKLAAPLLERAFEGFNTCLFAYGQTGSGKSYTMMGFSEEPGIIPRFCEDLFSQVARKQTQEVSYHIEMSFFEVYNEKIHDLLVCKDENGQRKQPLRVREHPVYGPYVEALSMNIVSSYADIQSWLELGNKQRATAATGMNDKSSRSHSVFTLVMTQTKTEFVEGEEHDHRITSRINLIDLAGSERCSTAHTNGDRLKEGVSINKSLLTLGKVISALSEQANQRSVFIPYRESVLTWLLKESLGGNSKTAMIATISPAASNIEETLSTLRYANQARLIVNIAKVNE
Regarding B1, the binding result is reported as “no binding”.
